Assay results taken from article PMC3130009, “Trichinella spiralis Paramyosin Binds to C8 and C9 and Protects the Tissue-Dwelling Nematode from Being Attacked by Host Complement” (PLoS Neglected Tropical Diseases, 2011).
These are yes or no findings as the source states them, for the method shown. Binding calls can cover weak binding; strength is not graded here.

Protein sequences, listed by entry. Tags and fused reporters are not part of them. Lines headed by an entry give the natural chain unless they say otherwise; changes in a name come on top. Residues count along the entry.
UniProt A3RLX8: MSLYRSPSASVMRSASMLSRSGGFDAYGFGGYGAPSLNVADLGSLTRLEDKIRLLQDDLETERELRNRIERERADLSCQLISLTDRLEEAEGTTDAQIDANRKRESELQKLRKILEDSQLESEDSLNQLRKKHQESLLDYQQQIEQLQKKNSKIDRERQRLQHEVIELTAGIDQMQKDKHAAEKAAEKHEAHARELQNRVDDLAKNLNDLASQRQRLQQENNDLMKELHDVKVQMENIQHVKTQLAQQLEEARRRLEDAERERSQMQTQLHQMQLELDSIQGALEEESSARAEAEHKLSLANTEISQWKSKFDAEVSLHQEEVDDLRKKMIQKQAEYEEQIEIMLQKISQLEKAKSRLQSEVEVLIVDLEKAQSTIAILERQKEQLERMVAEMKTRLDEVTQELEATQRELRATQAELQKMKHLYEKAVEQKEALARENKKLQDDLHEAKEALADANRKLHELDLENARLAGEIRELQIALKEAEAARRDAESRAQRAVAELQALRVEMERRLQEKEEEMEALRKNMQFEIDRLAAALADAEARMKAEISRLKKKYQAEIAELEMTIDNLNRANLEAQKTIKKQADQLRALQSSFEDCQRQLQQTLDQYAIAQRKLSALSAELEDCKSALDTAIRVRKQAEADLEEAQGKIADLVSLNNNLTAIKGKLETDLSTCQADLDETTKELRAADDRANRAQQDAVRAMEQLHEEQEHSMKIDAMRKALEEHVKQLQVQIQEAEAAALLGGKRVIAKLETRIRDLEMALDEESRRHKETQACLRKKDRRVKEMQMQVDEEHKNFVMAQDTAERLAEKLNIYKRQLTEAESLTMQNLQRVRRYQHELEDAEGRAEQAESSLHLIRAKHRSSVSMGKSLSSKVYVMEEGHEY
UniProt P07358, residues 55-591: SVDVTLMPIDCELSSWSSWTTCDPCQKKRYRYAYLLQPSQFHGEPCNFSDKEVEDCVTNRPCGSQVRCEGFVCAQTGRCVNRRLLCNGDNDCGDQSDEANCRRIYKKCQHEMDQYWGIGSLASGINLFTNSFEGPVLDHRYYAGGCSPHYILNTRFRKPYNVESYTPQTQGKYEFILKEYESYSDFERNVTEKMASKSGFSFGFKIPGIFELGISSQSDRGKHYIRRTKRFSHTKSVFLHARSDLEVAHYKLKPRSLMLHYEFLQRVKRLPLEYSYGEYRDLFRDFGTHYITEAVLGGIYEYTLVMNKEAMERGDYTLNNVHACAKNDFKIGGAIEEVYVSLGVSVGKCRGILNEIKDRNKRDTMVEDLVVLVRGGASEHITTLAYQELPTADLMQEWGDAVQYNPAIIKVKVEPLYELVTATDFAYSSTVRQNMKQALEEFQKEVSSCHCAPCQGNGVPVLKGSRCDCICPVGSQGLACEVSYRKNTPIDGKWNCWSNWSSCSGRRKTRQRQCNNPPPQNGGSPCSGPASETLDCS
UniProt P07357, residues 31-584: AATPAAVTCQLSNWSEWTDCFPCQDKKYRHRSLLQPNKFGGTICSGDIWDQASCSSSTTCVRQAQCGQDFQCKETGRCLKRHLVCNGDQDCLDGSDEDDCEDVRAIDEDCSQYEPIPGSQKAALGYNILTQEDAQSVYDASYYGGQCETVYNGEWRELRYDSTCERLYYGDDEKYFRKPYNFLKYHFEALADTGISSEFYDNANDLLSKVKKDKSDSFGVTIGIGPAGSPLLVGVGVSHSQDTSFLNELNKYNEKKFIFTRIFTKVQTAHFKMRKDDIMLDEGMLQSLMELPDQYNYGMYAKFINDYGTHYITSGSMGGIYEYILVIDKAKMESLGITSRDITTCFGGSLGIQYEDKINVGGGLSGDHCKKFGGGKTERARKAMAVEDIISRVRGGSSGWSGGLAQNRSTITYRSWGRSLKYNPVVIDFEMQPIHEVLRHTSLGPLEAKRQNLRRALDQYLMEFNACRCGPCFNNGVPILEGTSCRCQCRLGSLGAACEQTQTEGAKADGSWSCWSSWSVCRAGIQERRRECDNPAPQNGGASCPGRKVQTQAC
UniProt P02748, residues 22-559: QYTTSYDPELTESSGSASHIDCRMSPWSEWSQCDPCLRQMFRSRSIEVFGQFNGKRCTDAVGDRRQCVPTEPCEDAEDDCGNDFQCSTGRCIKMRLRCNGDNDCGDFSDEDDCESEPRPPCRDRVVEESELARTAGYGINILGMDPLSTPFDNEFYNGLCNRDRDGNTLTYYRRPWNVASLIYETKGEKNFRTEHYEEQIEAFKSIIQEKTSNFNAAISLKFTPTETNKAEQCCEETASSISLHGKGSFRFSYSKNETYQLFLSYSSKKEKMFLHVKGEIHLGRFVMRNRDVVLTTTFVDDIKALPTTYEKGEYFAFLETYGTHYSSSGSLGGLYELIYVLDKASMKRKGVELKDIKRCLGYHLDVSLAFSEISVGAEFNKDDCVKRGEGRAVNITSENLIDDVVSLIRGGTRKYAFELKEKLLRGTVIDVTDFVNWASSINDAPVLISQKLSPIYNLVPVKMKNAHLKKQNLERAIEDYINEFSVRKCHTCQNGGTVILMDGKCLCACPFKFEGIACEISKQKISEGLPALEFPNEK

Key:
[1] = target: recombinant Trichinella spiralis paramyosin (Trichinella spiralis) (UniProt A3RLX8); experiment: far-Western, overlay or dot blot; reciprocal: rTs-Pmy (1 µg) transferred to PVDF, incubated with soluble C9 (0.5 µg/mL) 2 h at 37°C, detected with monoclonal anti-C9 antibody; both purified
[2] = target: human complement component C8, beta chain (human) (UniProt P07358); experiment: far-Western, overlay or dot blot; human C8 and C9 (1 µg each) run on SDS-PAGE under reducing conditions, transferred to PVDF, incubated with rTs-Pmy (5 µg/mL in TBS-T) 3 h at 37°C, detected with mAb 7E2; both purified
[3] = target: human complement component C8, alpha chain (human) (UniProt P07357); experiment: as above
[4] = target: human complement component C9 (human) (UniProt P02748); experiment: as above
[5] = target: human complement component C9 (human) (UniProt P02748); experiment: far-Western, overlay or dot blot; competition: rTs-Pmy (5 µg/mL) pre-incubated with soluble C9 (30 µg/mL, 1:6 w/w) 1 h at 37°C before incubation with the membrane holding C9 (1 µg); detected with mAb 7E2 and IRDye-800CW secondary antibody; both purified

How did the binding [1] turn out when “human complement component C9 (from UniProt P02748 22-559)” was run?
Its binding is “binds”.

Which binding [2] does the source give for “recombinant Trichinella spiralis paramyosin (from UniProt A3RLX8)” here?
The binding was “binds”.

What about the binding [3] of the same substance?
The binding was “binds”.

And the binding [4]?
Its binding is “binds”.

What about the binding [5] of the same substance?
The binding was “binds”.
